Source: PubChem BioAssay AID540276 (National Center for Advancing Translational Sciences (NCATS), 2011)
“And” between values parts separate entries of the source, which are not always exact repeats. Equal values may be shown once. Among all 300,000 compounds or so, about 5,400 (1.8%) were called active. This list was built around the results that the source calls inconclusive (neither active nor inactive); the mix of calls is not that of the screen. Calls come from the whole dose curve; tested in HEK293 cells. Potencies beside an inconclusive call are fits to weak or partial responses and may not hold up. More than one record can exist for a structure, and the calls need not agree.

test: qHTS for inhibitors of binding or entry into cells for Marburg Virus; conditions: Marburg virus pseudotyped entry inhibition, cell reporter; series mostly up to 37.8 µM
Potency is the fitted concentration of half-maximal effect.

SMILES | Potency
c1ccc2c(c1)OC[C@@H](C1=NCCN1)O2 | inactive
CCc1ccc(NC(=O)c2cc(C)on2)cc1 | inconclusive: 10.3 µM [inhibitor, partial curve]
C=C(C(=O)c1ccccc1)C(NC(C)(C)C)c1ccccc1 (stereo unspecified) | inconclusive: 11.2 µM [inhibitor, partial curve, poor fit]
O=C(Cc1n[nH]c(=O)c2ccccc12)OCC(=O)c1ccc(F)cc1 | inconclusive: 22.4 µM [activator, partial curve, poor fit]
CCC(=O)NC(c1ccc(OC)c(OC)c1)c1cc(Cl)c2cccnc2c1O (stereo unspecified) | inconclusive: 2.82 µM [inhibitor, full curve, poor fit]
COc1cc(CNCCc2ccccc2)ccc1OCc1ccc(Cl)nc1 | inconclusive: 20.6 µM [inhibitor, single point]
COc1ccc(CNC(=O)COC(=O)c2cc(-c3cccs3)nc3ccccc23)cc1OC | inconclusive: 32.6 µM [inhibitor, partial curve, poor fit]
Cc1cc(Cl)ccc1NC(=S)N1CCN(C(=O)c2ccco2)CC1 | inactive
CCN(CC)C(=O)c1ccc(NC(=O)c2cccc(S(=O)(=O)N3CCN(C)CC3)c2)cc1 | inactive
COc1ccc(-c2csc(Nc3ncccc3C)n2)cc1 | inconclusive: 14.1 µM [inhibitor, single point]
Cc1nc2ccccc2n1CCCOc1ccccc1 | inconclusive: 5.62 µM [activator, single point]
COc1ccc(-c2csc(NC(=O)CC(NC(C)=O)c3ccccc3)n2)cc1OC (stereo unspecified) | inconclusive: 35.5 µM [inhibitor, single point]
O=C(Nc1ccccc1O)c1ccc(C(=O)c2ccccc2)o1 | inactive
COc1ccc(-n2c(SCCC#N)nnc2-c2cc(Cl)ccc2OC)cc1Cl | inconclusive: 29.1 µM [inhibitor, single point]
Cc1cccc(NC(=O)C(=O)NCc2ccccn2)c1 | inactive
O=C(NCc1ccco1)c1cc(Cl)nc(Cl)c1 | inconclusive: 10 µM [inhibitor, partial curve, poor fit]
Cn1c(NC(=O)c2cccs2)c(-c2cccs2)c(=O)c2ccccc21 | inconclusive: 16.4 µM [activator, single point]
COc1ccc2nc(NC(=O)C3CCN(C(=O)c4ccc(F)cc4)CC3)sc2c1 | inactive
CCCCOc1ccc(C(=O)Nc2cc(C)c(OCC(=O)N3CCOCC3)c(C)c2)cc1 | inactive
c1ccc(N2CCN(Cc3ccnc4ccccc34)CC2)cc1 | inconclusive: 8.2 µM [inhibitor, partial curve, poor fit]
COc1ccccc1N1CCN(C(=O)c2cc3c(s2)CCC3)CC1 | inconclusive: 12.6 µM [inhibitor, single point]
CCC(CC)c1nnc(NC(=O)c2ccc(N3CCCCC3)c([N+](=O)[O-])c2)s1 | inconclusive: 5.62 µM [inhibitor, full curve, poor fit]
COC(=O)c1c(C)sc(-c2c(-c3cccc(Cl)c3)[nH]c3c2c(=O)[nH]c(=O)n3C)c1O | inactive
COc1cccc(C(=O)NCC(=O)N2CCC(C)CC2)c1 | inactive

Fetched by structure from above (3):
SMILES | Potency
O=C(Nc1ccccc1O)c1ccc(C(=O)c2ccccc2)o1 | inactive
COc1ccc(-c2csc(Nc3ncccc3C)n2)cc1 | inconclusive: 14.1 µM [inhibitor, single point]
c1ccc2c(c1)OC[C@@H](C1=NCCN1)O2 | inactive

In another format: entries from further up
Cc1cc(Cl)ccc1NC(=S)N1CCN(C(=O)c2ccco2)CC1
  Potency: inactive
CCN(CC)C(=O)c1ccc(NC(=O)c2cccc(S(=O)(=O)N3CCN(C)CC3)c2)cc1
  Potency: inactive
COc1ccc(-c2csc(Nc3ncccc3C)n2)cc1
  Potency: inconclusive: 14.1 µM [inhibitor, single point]

Later entries:

SMILES | Potency
O=C(NCCCn1ccnc1)c1nn2c(C(F)(F)F)cc(-c3ccc(Br)cc3)nc2c1Cl | inconclusive: 35.5 µM [inhibitor, single point]
COCCNC(=O)c1c(N)n(-c2cccc(C)c2)c2nc3ccccc3nc12 | inconclusive: 35.5 µM [inhibitor, single point]
c1ccc(COn2nnc3ccccc32)c(COn2nnc3ccccc32)c1 | inconclusive: 18.3 µM [inhibitor, partial curve, poor fit]
COc1ccc(NC(=S)Nc2ccc3nsnc3c2)cc1 | inconclusive: 10 µM [inhibitor, single point]
CCOc1ccc(Br)cc1CNc1ccc2c(c1)OCCO2 | inconclusive: 0.112 µM [inhibitor, full curve, poor fit]
Cc1cc(NC(=O)c2ccc(N3C(=O)CCC3=O)cc2)no1 | inconclusive: 5.62 µM [inhibitor, single point]
Cc1ccc(NC(=O)C2CCCN(c3ncccn3)C2)c(C)c1 (stereo unspecified) | inconclusive: 6.31 µM [activator, single point]
Cc1cccc(NC(=O)CSc2nnc(C3CC3)n2CC2CCCO2)c1 (stereo unspecified) | inactive
Cc1ccccc1C(=O)Nc1cc(S(=O)(=O)N2CCCCC2)ccc1N1CCN(C)CC1 | inconclusive: 3.16 µM [inhibitor, partial curve, poor fit]
Cc1cc(C)[n+]2[nH]c(N)c(N=Nc3ccccc3)c2n1 | inactive
CC1CCN(c2oc(-c3cccc4ccccc34)nc2C#N)CC1 | inactive
O=S(=O)(Cc1ccc(Cl)cc1)c1ccccc1-c1nnc(-c2ccc(Cl)cc2)o1 | inconclusive: 20 µM [inhibitor, single point]
O=C(c1noc2c1CCCC2)N1CCc2c([nH]c3ccccc23)C1c1ccccn1 (stereo unspecified) | inconclusive: 22.4 µM [inhibitor, single point]
O=C(N/N=C/c1ccc(-c2ccccc2)o1)c1ccccc1O | inactive
Cc1sc(N/N=C/c2cccs2)nc1-c1ccccc1 | active: 7.94 µM
CN(C)c1ccc(NS(=O)(=O)c2cc(Cl)ccc2Cl)cc1 | inconclusive: 10 µM [inhibitor, partial curve, poor fit]
Nc1ccc2nc(SCc3ccccc3F)sc2c1 | inconclusive: 6.31 µM [activator, single point]
Cc1oc(/N=C/c2ccc3c(c2)OCO3)c(C#N)c1C | inactive
COc1nc(Nc2ccc(C(C)C)cc2)nc(OC)n1 | inactive
Cn1c(Oc2ccc(F)cc2)nc2c1c(=O)n(Cc1ccccc1Cl)c(=O)n2C | inconclusive: 35.5 µM [inhibitor, single point]
Nc1cccc2c(O)cccc12 | inactive
CCOC(=O)Cc1cnc(NC(=O)NC(C(=O)OCC)(c2ccccc2)C(F)(F)F)s1 (stereo unspecified) | inconclusive: 4.11 µM [inhibitor, full curve, poor fit]
Cn1nc(OC(=O)Nc2cccc(Cl)c2)cc1C(F)(F)F | inconclusive: 14.1 µM [activator, single point]
Cc1cccc(OCC(=O)N2CCN(C(=O)Cc3ccccc3)CC2)c1 | inconclusive: 7.94 µM [inhibitor, partial curve, poor fit]

SMILES | Potency
CC(=O)N1CCc2c(sc3c2c(=O)n(-c2ccc(C)cc2)c(=O)n3CC(=O)Nc2ccccc2)C1 | inconclusive: 35.5 µM [inhibitor, partial curve, poor fit]
Cc1cccc2c1NC(=O)/C2=C\C(=O)c1cccs1 | inconclusive: 22.4 µM [inhibitor, single point]
COc1ccc(/C=N/NC(=S)Nc2cc(C(F)(F)F)ccc2Cl)cc1 | inconclusive: 1.12 µM [inhibitor, full curve, poor fit]
COc1ccc(CCC(=O)Nc2ccc(Cl)c(S(=O)(=O)N3CCOCC3)c2)cc1OC | active: 6.31 µM
CCOC(=O)C1CCCN(Cc2ccc(OCC)cc2)C1 (stereo unspecified) | inactive
CSc1ccccc1OCc1cc(C(=O)N2CCc3[nH]cnc3C2c2ccccn2)no1 (stereo unspecified) | inconclusive: 1.26 µM [inhibitor, single point]
CCC(c1nnc(SCC(=O)N2CC3(C)CC2CC(C)(C)C3)o1)N(C)C (stereo unspecified) | inconclusive: 6.51 µM [activator, single point]
Cc1ccc2nc(NC(=O)c3cc(=O)c4cc(Cl)ccc4o3)sc2c1 | inactive
COc1ccc(Cl)cc1NC(=S)NCCc1ccc(S(N)(=O)=O)cc1 | inconclusive: 35.5 µM [inhibitor, single point]
c1ccc(CCNCCOc2ccccc2)cc1 | inconclusive: 0.1 µM [activator, full curve, poor fit]
COC(=O)Nc1nc2ccc(C(=O)c3cccs3)cc2[nH]1 | inactive and active: 158 nM
COCCCNC(=S)Nc1cccc2ncccc12 | inconclusive: 10 µM [inhibitor, partial curve, poor fit]
COc1ccc(OCc2nn3c(-c4cccc(OC)c4)nnc3s2)cc1 | inconclusive: 5.62 µM [inhibitor, partial curve, poor fit]
c1ccc2c(-c3nc(-c4ccncc4)no3)cccc2c1 | inactive
CC1CCN(Cc2c(C(=O)N/N=C/c3ccc(OC(C)C)cc3)nnn2-c2nonc2N)CC1 | inconclusive: 7.94 µM [inhibitor, partial curve, poor fit]
C=CCc1cccc2cc(C(=O)N3CCN(c4ccccn4)CC3)c(=O)oc12 | inconclusive: 32.6 µM [inhibitor, single point]
COc1cc(C=O)ccc1OC(=O)c1ccc(C(C)C)cc1 | inconclusive: 4.47 µM [activator, single point]
COc1ccc(CC(=O)Nc2nc3ccccc3[nH]2)cc1 | inactive
Cc1cc(N2CCC(C)CC2)nc2ccc(NC(=O)/C=C/c3cccc(Cl)c3)cc12 | inactive
COc1ccc(NC(=O)c2ccc(NCCN3C(=O)CCC3=O)c([N+](=O)[O-])c2)cc1 | inconclusive: 1 µM [activator, full curve, poor fit]
Cc1ccsc1/C=N/NC(=O)c1cc(-c2ccncc2)nc2ccccc12 | active: 0.58 µM
O=[N+]([O-])c1cccc(/C=N/NC2CCS(=O)(=O)C2)c1 (stereo unspecified) | inactive
O=C(Cn1cnc([N+](=O)[O-])n1)N/N=C/c1ccc(O)cc1O | inconclusive: 31.6 µM [inhibitor, single point]
